Test results reported in the supplement of paper PMC12819154, “High-throughput peptide-centric local stability assay extends protein–ligand identification to membrane proteins, tissues and bacteria” (Nature Structural & Molecular Biology, 2025).
Some of the results follow. Most entries show no effect beyond the scatter of the controls.

Protein sequences, listed by entry. Tags and fused reporters are not part of them. Lines headed by an entry give the natural chain unless they say otherwise; changes in a name come on top.
UniProt P06339: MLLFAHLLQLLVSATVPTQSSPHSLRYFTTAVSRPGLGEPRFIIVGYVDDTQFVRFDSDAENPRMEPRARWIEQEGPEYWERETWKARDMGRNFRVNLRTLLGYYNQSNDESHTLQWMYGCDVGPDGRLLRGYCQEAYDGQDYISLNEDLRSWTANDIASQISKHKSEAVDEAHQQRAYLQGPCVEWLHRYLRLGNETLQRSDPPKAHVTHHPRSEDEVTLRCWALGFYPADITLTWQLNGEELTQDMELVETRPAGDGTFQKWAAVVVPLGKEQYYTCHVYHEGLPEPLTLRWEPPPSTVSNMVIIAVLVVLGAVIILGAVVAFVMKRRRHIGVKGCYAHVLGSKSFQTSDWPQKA
UniProt O88904: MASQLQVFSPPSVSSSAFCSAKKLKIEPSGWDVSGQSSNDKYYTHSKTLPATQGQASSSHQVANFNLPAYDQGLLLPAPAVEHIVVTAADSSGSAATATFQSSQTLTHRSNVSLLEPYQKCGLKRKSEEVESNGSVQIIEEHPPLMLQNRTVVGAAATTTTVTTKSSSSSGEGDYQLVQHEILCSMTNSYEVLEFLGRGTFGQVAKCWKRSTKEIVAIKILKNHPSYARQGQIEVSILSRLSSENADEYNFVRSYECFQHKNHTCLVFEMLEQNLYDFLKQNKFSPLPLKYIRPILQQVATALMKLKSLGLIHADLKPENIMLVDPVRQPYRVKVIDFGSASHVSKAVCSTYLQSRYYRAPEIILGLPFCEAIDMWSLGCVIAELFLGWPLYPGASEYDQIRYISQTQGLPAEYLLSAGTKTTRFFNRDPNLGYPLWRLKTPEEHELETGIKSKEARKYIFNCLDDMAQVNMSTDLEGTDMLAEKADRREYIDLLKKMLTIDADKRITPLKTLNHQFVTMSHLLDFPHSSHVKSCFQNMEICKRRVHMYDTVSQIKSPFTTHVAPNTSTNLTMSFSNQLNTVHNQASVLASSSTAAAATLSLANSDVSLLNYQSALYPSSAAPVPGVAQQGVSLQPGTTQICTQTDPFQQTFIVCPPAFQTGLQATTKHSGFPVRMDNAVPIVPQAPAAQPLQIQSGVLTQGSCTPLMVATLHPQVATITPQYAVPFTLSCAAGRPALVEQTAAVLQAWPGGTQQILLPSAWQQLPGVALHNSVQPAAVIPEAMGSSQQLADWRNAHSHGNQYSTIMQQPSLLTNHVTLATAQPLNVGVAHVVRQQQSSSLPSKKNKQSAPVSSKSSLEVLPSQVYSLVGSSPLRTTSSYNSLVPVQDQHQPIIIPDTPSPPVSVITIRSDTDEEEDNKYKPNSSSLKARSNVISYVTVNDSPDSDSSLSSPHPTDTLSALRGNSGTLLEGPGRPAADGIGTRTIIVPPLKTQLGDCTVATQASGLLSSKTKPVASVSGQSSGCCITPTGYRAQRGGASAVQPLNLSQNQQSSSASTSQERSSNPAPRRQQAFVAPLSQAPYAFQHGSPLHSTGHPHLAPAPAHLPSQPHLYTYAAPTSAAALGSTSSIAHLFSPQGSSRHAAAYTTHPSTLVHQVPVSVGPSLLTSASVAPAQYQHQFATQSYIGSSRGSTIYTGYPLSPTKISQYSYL
UniProt P11031: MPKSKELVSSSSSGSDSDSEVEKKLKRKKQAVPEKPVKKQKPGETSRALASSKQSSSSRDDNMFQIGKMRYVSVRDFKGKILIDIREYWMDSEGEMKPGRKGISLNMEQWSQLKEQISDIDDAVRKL
UniProt P03958: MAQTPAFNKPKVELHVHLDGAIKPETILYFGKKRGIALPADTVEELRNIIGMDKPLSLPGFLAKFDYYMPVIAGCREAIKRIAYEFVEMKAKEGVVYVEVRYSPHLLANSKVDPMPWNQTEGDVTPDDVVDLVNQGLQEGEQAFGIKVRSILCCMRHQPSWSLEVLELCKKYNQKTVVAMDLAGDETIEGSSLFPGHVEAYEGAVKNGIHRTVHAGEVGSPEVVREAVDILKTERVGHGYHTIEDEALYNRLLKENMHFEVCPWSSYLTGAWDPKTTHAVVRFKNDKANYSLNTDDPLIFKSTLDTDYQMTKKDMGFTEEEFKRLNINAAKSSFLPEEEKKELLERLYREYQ
UniProt P13541, whole entry: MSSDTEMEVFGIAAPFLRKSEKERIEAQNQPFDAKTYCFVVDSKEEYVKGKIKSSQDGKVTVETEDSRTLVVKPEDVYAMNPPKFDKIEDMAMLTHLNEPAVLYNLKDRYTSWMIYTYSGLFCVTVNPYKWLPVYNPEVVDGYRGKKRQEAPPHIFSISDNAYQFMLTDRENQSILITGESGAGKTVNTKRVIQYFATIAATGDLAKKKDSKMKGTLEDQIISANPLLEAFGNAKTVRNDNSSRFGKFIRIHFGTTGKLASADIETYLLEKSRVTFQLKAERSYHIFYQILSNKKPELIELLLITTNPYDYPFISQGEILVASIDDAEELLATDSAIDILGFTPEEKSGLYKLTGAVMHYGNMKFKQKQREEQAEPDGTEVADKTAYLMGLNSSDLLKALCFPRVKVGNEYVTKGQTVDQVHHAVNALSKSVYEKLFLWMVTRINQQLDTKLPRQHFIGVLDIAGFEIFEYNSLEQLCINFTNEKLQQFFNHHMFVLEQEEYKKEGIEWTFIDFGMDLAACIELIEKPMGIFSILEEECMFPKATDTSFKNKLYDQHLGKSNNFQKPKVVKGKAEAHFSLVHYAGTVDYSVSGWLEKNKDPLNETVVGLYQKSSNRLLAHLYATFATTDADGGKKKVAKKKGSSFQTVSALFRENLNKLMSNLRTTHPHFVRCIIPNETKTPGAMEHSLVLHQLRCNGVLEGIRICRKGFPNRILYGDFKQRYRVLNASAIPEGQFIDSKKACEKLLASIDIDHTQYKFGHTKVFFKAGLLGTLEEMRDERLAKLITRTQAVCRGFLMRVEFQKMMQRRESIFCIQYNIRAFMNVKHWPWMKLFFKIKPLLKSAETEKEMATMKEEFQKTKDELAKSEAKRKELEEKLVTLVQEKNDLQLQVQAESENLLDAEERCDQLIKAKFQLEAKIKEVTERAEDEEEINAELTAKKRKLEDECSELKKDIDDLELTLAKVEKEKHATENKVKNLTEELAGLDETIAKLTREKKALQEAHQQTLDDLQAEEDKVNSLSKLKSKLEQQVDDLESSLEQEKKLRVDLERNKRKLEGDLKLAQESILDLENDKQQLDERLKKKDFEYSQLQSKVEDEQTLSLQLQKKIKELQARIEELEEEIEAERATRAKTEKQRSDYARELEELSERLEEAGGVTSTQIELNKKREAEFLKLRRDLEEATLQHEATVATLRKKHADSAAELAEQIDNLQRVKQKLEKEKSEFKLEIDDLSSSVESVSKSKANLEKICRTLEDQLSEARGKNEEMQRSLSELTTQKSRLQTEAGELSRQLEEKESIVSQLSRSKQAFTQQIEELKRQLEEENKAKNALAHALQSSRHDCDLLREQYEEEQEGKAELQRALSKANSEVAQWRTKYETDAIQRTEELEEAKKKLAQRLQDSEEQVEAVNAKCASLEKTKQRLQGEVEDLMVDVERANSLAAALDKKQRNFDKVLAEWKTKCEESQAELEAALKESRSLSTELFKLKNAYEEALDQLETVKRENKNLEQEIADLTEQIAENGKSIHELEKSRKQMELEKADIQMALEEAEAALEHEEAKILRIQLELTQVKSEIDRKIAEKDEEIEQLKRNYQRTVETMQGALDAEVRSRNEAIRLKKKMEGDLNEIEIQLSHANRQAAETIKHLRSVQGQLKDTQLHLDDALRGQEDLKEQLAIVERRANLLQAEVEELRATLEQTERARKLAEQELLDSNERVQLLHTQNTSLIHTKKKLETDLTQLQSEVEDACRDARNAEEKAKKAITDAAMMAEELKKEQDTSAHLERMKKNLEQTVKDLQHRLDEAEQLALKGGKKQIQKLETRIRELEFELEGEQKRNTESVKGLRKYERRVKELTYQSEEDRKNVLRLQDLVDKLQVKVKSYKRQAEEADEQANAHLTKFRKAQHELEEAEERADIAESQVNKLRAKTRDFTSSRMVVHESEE
UniProt O88983: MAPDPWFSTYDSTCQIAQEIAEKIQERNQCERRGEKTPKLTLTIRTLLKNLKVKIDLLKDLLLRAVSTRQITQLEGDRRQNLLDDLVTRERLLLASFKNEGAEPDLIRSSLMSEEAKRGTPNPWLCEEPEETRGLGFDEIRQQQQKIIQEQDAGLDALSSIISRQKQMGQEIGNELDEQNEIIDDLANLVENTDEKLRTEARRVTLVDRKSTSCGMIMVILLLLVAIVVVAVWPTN
UniProt P08228, whole entry: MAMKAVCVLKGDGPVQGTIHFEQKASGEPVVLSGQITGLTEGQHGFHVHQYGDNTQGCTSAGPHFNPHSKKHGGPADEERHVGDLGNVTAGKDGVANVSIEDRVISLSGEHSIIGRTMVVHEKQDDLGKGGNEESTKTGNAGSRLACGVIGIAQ
UniProt P10493: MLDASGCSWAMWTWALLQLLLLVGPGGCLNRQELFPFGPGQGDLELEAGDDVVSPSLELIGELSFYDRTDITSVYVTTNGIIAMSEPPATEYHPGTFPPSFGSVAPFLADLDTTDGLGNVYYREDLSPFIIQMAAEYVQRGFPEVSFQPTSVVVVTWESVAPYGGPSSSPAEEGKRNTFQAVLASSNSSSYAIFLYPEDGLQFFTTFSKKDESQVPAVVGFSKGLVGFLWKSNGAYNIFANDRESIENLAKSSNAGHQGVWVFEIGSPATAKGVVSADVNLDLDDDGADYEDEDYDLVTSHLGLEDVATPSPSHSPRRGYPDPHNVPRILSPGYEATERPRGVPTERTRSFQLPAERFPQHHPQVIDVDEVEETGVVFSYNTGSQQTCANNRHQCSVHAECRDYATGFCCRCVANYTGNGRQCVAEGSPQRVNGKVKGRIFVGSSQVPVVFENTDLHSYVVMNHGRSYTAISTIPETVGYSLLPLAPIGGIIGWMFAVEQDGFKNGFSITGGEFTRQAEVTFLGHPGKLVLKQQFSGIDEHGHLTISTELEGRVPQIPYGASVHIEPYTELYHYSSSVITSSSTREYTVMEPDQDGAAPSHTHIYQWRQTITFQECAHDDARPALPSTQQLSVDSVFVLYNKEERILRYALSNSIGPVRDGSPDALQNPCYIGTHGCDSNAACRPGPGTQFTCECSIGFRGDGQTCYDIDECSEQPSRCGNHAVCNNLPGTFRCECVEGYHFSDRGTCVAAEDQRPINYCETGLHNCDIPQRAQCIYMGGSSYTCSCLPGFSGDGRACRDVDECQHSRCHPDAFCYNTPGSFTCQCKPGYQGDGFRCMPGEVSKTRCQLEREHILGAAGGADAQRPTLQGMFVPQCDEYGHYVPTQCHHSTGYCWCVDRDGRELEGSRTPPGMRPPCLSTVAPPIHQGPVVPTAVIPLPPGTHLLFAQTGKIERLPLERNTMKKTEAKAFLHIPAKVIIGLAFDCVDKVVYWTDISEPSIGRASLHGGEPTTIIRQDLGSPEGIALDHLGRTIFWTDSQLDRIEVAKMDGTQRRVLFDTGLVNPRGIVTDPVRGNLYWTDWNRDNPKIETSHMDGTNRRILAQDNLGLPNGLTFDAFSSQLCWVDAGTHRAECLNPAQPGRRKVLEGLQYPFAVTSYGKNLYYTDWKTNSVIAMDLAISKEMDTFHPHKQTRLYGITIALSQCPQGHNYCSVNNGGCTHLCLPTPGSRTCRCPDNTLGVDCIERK
UniProt P06837, whole entry: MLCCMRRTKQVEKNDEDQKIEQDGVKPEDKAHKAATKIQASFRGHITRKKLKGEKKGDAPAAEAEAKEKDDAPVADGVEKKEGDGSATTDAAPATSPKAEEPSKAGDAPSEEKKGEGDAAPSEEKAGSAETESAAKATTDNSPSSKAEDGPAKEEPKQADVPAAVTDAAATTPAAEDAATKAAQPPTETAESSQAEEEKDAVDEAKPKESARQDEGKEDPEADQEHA
UniProt P07361: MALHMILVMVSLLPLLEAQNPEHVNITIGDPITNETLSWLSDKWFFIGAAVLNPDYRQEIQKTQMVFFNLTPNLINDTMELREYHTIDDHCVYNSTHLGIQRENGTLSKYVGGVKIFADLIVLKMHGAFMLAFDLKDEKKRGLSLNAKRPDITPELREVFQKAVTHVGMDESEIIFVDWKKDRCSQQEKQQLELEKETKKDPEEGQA
UniProt P15331, whole entry: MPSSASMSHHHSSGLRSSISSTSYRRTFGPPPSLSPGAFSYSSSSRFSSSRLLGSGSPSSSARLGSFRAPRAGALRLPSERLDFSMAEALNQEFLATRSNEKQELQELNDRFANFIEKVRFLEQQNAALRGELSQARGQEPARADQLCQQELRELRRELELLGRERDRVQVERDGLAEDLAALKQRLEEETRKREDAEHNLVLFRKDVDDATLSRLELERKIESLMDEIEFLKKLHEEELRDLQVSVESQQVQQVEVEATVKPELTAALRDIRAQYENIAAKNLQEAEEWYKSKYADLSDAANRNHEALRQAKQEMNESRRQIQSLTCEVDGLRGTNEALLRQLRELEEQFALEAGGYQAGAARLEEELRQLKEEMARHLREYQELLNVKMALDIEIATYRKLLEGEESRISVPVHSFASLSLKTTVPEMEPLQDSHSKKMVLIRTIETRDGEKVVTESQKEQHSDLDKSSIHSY

What follows are targets tested with CN[C@@H]1C[C@H]2O[C@@](C)([C@@H]1OC)n1c3ccccc3c3c4c(c5c6ccccc6n2c5c31)C(=O)NC4 [staurosporine] (assay: log2 fold change of tryptic peptide abundance, ligand vs vehicle (limited proteolysis) (log2 ratio); higher = more trypsin-susceptible (destabilized)). Details: ligand concentration: 20 uM; sample: mouse liver crude lysate; replicate design: treated separately.

**Q.** With “UniProt P00015 (peptide sequence: MIFAGIKK, peptide start residue: 81)” as the target, how does the log2 fold change read?
**A.** The log2 fold change was 0.000113.

**Q.** With “UniProt P05977 (peptide sequence: KPAAAPAPAPAPAPAPAKPK, peptide start residue: 9)” as the target, how does the log2 fold change read?
**A.** Its log2 fold change is 0.23.

**Q.** “UniProt P0DJF2 (peptide sequence: LLGEQIILTK, peptide start residue: 54)” was tested. Which log2 fold change did it give?
**A.** The log2 fold change was 0.0374.

**Q.** How did the log2 fold change turn out when “UniProt P14094 (peptide sequence: AKEEGSWK, peptide start residue: 6)” was run?
**A.** Its log2 fold change is 0.383.

**Q.** With “UniProt P06339 (peptide sequence: AYLQGPCVEWLHR, peptide start residue: 178)” as the target, how does the log2 fold change read?
**A.** Its log2 fold change is 0.305.

**Q.** How did the log2 fold change turn out when “UniProt O88904 (peptide sequence: GNSGTLLEGPGRPAADGIGTR, peptide start residue: 963)” was run?
**A.** The log2 fold change was 0.331.

**Q.** How did the log2 fold change turn out when “UniProt P04186 (peptide sequence: RDLEIEEVLFHPK, peptide start residue: 543)” was run?
**A.** The log2 fold change was -0.292.

**Q.** For “UniProt P02463 (peptide sequence: SAPFIECHGR, peptide start residue: 1610)”, which log2 fold change is on record?
**A.** Its log2 fold change is -0.00359.

**Q.** With “UniProt P15508 (peptide sequence: RQEMNDKWEAR, peptide start residue: 1982)” as the target, how does the log2 fold change read?
**A.** Its log2 fold change is -0.97.

**Q.** Which log2 fold change does the source give for “UniProt P11031 (peptide sequence: QAVPEKPVK, peptide start residue: 30)” here?
**A.** The log2 fold change was -0.149.

**Q.** “UniProt P01895 (peptide sequence: WASVVVPLGK, peptide start residue: 268)” was tested. Which log2 fold change did it give?
**A.** Its log2 fold change is 0.0988.

**Q.** For “UniProt O89086 (peptide sequence: PGGYGYGYGR, peptide start residue: 119)”, which log2 fold change is on record?
**A.** The log2 fold change was 0.348.

**Q.** For “UniProt P13405 (peptide sequence: FDIEGADEADGSK, peptide start residue: 870)”, which log2 fold change is on record?
**A.** Its log2 fold change is 0.39.

**Q.** Which log2 fold change does the source give for “UniProt P03958 (peptide sequence: AQTPAFNKPK, peptide start residue: 2)” here?
**A.** The log2 fold change was 0.16.

**Q.** With “UniProt P0C7L0 (peptide sequence: SAPQIEGSK, peptide start residue: 80)” as the target, how does the log2 fold change read?
**A.** Its log2 fold change is -0.212.

**Q.** “UniProt P11835 (peptide sequence: SNEFDYPSVGQLAHK, peptide start residue: 297)” was tested. Which log2 fold change did it give?
**A.** The log2 fold change was -0.164.

**Q.** For “UniProt P15532 (peptide sequence: DRPFFTGLVK, peptide start residue: 57)”, which log2 fold change is on record?
**A.** Its log2 fold change is -0.258.

**Q.** Which log2 fold change does the source give for “UniProt P06151 (peptide sequence: SLNPELGTDADKEQWKEVHK, peptide start residue: 213)” here?
**A.** Its log2 fold change is -0.239.

**Q.** With “UniProt P01027 (peptide sequence: TVAIHTLDPEK, peptide start residue: 941)” as the target, how does the log2 fold change read?
**A.** The log2 fold change was 0.177.

**Q.** With “UniProt P13541 (peptide sequence: ATLEQTERAR, peptide start residue: 1691)” as the target, how does the log2 fold change read?
**A.** Its log2 fold change is 0.108.

**Q.** With “UniProt P14873 (peptide sequence: SKPLAASPKPGALK, peptide start residue: 2261)” as the target, how does the log2 fold change read?
**A.** The log2 fold change was 0.193.

**Q.** Which log2 fold change does the source give for “UniProt O88983 (peptide sequence: GLGFDEIR, peptide start residue: 134)” here?
**A.** The log2 fold change was -0.281.

**Q.** With “UniProt P04939 (peptide sequence: TDYDNYIMIHLINKK, peptide start residue: 114)” as the target, how does the log2 fold change read?
**A.** The log2 fold change was -0.398.

**Q.** With “UniProt P11714 (peptide sequence: ITSHDIEVQDFLIPK, peptide start residue: 380)” as the target, how does the log2 fold change read?
**A.** The log2 fold change was -0.175.

**Q.** For “UniProt O89026 (peptide sequence: AQLEVRPVMVPK, peptide start residue: 1460)”, which log2 fold change is on record?
**A.** Its log2 fold change is -0.317.

**Q.** “UniProt P08228 (peptide sequence: QDDLGKGGNEESTK, peptide start residue: 124)” was tested. Which log2 fold change did it give?
**A.** Its log2 fold change is -0.891.

**Q.** For “UniProt P08553 (peptide sequence: VHYLEQQNK, peptide start residue: 117)”, which log2 fold change is on record?
**A.** Its log2 fold change is -0.194.

**Q.** For “UniProt P15261 (peptide sequence: MAEHDPPPVR, peptide start residue: 428)”, which log2 fold change is on record?
**A.** Its log2 fold change is 0.239.

**Q.** With “UniProt P0C673 (peptide sequence: GSSPQVLPR, peptide start residue: 376)” as the target, how does the log2 fold change read?
**A.** Its log2 fold change is 0.334.

**Q.** How did the log2 fold change turn out when “UniProt P13808 (peptide sequence: LLPPGAGLEPK, peptide start residue: 639)” was run?
**A.** Its log2 fold change is -0.248.

**Q.** “UniProt O88958 (peptide sequence: EVMILITGAHK, peptide start residue: 198)” was tested. Which log2 fold change did it give?
**A.** Its log2 fold change is 0.547.

**Q.** How did the log2 fold change turn out when “UniProt P10493 (peptide sequence: SFQLPAER, peptide start residue: 350)” was run?
**A.** Its log2 fold change is -0.124.

**Q.** With “UniProt P11928 (peptide sequence: CFQGAAHPVR, peptide start residue: 46)” as the target, how does the log2 fold change read?
**A.** The log2 fold change was 0.703.

**Q.** How did the log2 fold change turn out when “UniProt P06837 (peptide sequence: AGSAETESAAK, peptide start residue: 126)” was run?
**A.** The log2 fold change was -0.653.

**Q.** For “UniProt P07361 (peptide sequence: ETKKDPEEGQA, peptide start residue: 197)”, which log2 fold change is on record?
**A.** Its log2 fold change is -0.359.

**Q.** With “UniProt P08775 (peptide sequence: MSVTEGGIK, peptide start residue: 34)” as the target, how does the log2 fold change read?
**A.** Its log2 fold change is 0.434.

**Q.** “UniProt P15331 (peptide sequence: LHEEELR, peptide start residue: 235)” was tested. Which log2 fold change did it give?
**A.** Its log2 fold change is -0.291.

**Q.** Which log2 fold change does the source give for “UniProt P12787 (peptide sequence: LNDFASAVR, peptide start residue: 95)” here?
**A.** Its log2 fold change is -0.227.

**Q.** Which log2 fold change does the source give for “UniProt P06745 (peptide sequence: LRELFEADPER, peptide start residue: 26)” here?
**A.** Its log2 fold change is -0.27.
